## Screening data, single-dose tests

Measurements from “University of Dundee, Small-Polar-MMV Screening Library” (2021), ChEMBL document CHEMBL3988442.

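Whole-cell growth test on Mycobacterium tuberculosis, read after 3 days in glucose-containing 7H9 medium; the read-out is not stated. Tested at 500 µM. Higher reads as more growth inhibition (inferred: compounds with an IC50 in retests scored well above the rest). Size under these conditions: about 18,000 compounds, about 1,400 of them at 50% or above in at least one test.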

Each number is a percent effect as filed. The controls that fix the scale are not given in the record; negative values are as filed. The compounds are a random part of those screened.

compound	Percent Effect
Cc1cncc(C(N)=O)c1	-3.426
Cc1ccc(C(=O)N2CCOCC2(C)C)cc1F	22.8
CCC1C(=O)NCCN1CCCOC (stereo unspecified)	-10.4
Cc1ccc(C(=O)N2CCOCC2CO)c(C)n1 (stereo unspecified)	7.336
OCCNCCNCc1ccc(-c2ccccc2Cl)o1	92.56
CN(CC(=O)Nc1ccsc1)C1CCS(=O)(=O)C1 (stereo unspecified)	1.163
CC(C)=CCO[C@@H]1COCC[C@H]1NS(=O)(=O)C1CC1	18.02
CCN(CCC(=O)NC)CC(O)c1ccc(C)cc1 (stereo unspecified)	11.24
Cc1cccc(CC(=O)NCC2CCCNC2)c1 (stereo unspecified)	5.37
O=C(c1cnsn1)N1CCCSc2ccc(F)cc21	78.03
c1cc2c(cc1CN1CCCCC1)CNCCO2	-11.49
CN(C)Cc1ccc(C(=O)N[C@@H]2CCOC[C@H]2O)o1	10.49
CCc1nnc(NC(=O)c2cc(OC)ccn2)s1	-6.745
C=C(Cl)CN(C)C(CO)c1cccc(F)c1 (stereo unspecified)	37.56
CCN(CC(C)(C)O)C(=O)c1nccc2ccccc12	17.48
NCc1cccc2occc12	17.42
CC1=NOC(C(=O)NCCCn2nc(C)nc2C)C1 (stereo unspecified)	13.69
COC(=O)CCN1CCN(C(=O)c2ccco2)C(C)C1 (stereo unspecified)	10.2
CC(C)c1nnc2n1CC(N)CC2 (stereo unspecified)	-6.733
CN(Cc1ccc2cc(Cl)ccc2n1)CC(O)CO (stereo unspecified)	19.9
CCC(CO)Nc1nccc(C(F)(F)F)n1 (stereo unspecified)	52.72
O=S(=O)(NC1CC1)C1CCN(CCc2ccccn2)C1 (stereo unspecified)	10.98
CCn1nc(C)cc1C(=O)NCCCc1ncc[nH]1	6.521
COc1cccc2c1C(N)CO2 (stereo unspecified)	7.085
CSCc1nnc(SC)o1	10.28
CC(NC(=O)CN1CCCC1=O)C(=O)N(C)C (stereo unspecified)	-2.114
CCOc1ncccc1C(=O)NCC1CCCN1CC (stereo unspecified)	13.34
CCNc1ccc(C(F)(F)F)cn1	11.87
O=C1CC(c2ccccc2Cl)NN1 (stereo unspecified)	22.36
CCN1CC(c2nc3ccccc3[nH]2)CC1=O (stereo unspecified)	56.88
Cc1cccc(=O)n1CCCNC(=O)c1cnco1	0.1526
OCCN(CCO)Cc1cc(F)cc(Br)c1	29.78
CNC(=O)NC1CN(C(=O)OC(C)(C)C)C1	-2.787
CC(C)N(C)C(=O)CC1CCNCC1	-8.12
CC(C)c1cccc(S(=O)(=O)N2CCCC2CN)c1 (stereo unspecified)	64.67
Cc1ccc(CC(=O)N2CCC3(CC2)OCCO3)cn1	32.43
COCCCC1CCCN(C(=O)c2n[nH]c(N)c2Cl)C1 (stereo unspecified)	7.135
CCC(=O)n1nc(-c2ccco2)nc1N	1.477
CCCNCc1cc(OC)c(OCC(N)=O)cc1Br	4.994
NCC1CN(C(N)=O)CCO1 (stereo unspecified)	10.85
Cc1cccc(C)c1NCC(=O)N1CC[C@H](O)C1	3.046
CSCC(=O)NCCc1noc(C(F)(F)F)n1	10.22
O=C1CCc2cc(C(=O)N3CCCC3)ccc2N1	-5.82
Cc1cc(Cl)ccc1NC(=O)CN1CCN(C)CC1	52.23
C1C[C@@H]2CNC[C@@H]2O1	6.532
CNC(C)(C)CNC(=O)Nc1ccccn1	5.048
CN1CCC(C2CCN(Cc3cccnc3)C2)CC1 (stereo unspecified)	-2.832
CC(C)(C)OC(=O)NC1CC2(CNC2)C1	37.16
c1cn(C2CCCNCC2)nn1 (stereo unspecified)	-5.606
O=C(CC1C=CCC1)NCCNc1cnccn1 (stereo unspecified)	15.55
CC(Sc1nnc(C2CC2)n1C1CC1)C(N)=O (stereo unspecified)	10.87
CN(C)CCCOc1cccc(CN2CC(O)C2)c1	30.65
O=C(NCC1CCCO1)c1cc(-c2cccs2)on1 (stereo unspecified)	68.06
O=C(NC1CC1)c1snnc1-c1ccccc1	29.86
COC(=O)c1[nH]cc(-c2ccccc2)c1N	58.36
O=C(Nc1cnccc1O)C1(c2ccccc2)CC1	-2.331
Cc1ccc2c(c1)OC(C)CN2C(=O)c1ccccn1 (stereo unspecified)	53.16
Cc1cccc(C(=O)N2CCC3(CC2)OCCO3)n1	1.912
CCC(CO)NC(=O)c1ccc(Cl)c(OC)c1 (stereo unspecified)	-2.992
NC(CN1CCOCC1)c1ccccc1 (stereo unspecified)	56.09
CCC[C@H]1CN(S(=O)(=O)N(C)CC)C[C@@H]1N	13.24
Cc1cccc(C(=O)Nc2cccc(O)c2)n1	41.98
N#Cc1cccc(CN)c1	12.51
CCCOc1ccc(CNC(=O)c2cc[nH]n2)cn1	63.02
CC(=O)NC(C(=O)Nc1cccc(C)n1)C(C)C (stereo unspecified)	-5.248
CNc1nnc(SCc2csc(NC(C)=O)n2)s1	2.985
Cc1ccc(C(C)NC(=O)Nc2nccn(C)c2=O)o1 (stereo unspecified)	50.49
NCC(=O)N1CCC(C(N)=O)CC1	2.883
COc1cc(O)c(C(C)=O)cc1OC	-6.675
CN1CCC(NC(=O)COc2ccc(C#N)cc2)CC1	8.706

The first 5 entries again:

- Cc1cncc(C(N)=O)c1 : -3.426%
- Cc1ccc(C(=O)N2CCOCC2(C)C)cc1F : 22.8%
- CCC1C(=O)NCCN1CCCOC (stereo unspecified) : -10.4%
- Cc1ccc(C(=O)N2CCOCC2CO)c(C)n1 (stereo unspecified) : 7.336%
- OCCNCCNCc1ccc(-c2ccccc2Cl)o1 : 92.56%